Measured values as given in paper doi:10.1101/2025.05.07.652675.
Results are given in words; binding and its absence hold for the method and conditions named. Some binding calls cover weakened binding; strength is not graded here.

By UniProt entry, the sequences of proteins in these tests, tags left out. Residues count along the entry.
UniProt P0A9A6, 316-370: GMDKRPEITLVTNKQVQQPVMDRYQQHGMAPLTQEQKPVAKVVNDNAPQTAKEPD
UniProt P0A9A6, 316-383: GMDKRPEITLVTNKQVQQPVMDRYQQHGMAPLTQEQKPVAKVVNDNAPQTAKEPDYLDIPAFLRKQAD
UniProt P75862, whole entry: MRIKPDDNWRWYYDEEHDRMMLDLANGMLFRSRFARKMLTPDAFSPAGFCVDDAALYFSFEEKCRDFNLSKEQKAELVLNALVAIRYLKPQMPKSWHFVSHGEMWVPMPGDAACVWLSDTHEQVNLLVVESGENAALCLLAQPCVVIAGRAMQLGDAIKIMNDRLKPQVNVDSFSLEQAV

Tests used:
[1] = target: SUMO-FtsZ^316-370 (E. coli) (UniProt P0A9A6); assay: BLI
[2] = target: FtsZ^316-383 (bacterial two-hybrid fusion) (E. coli) (UniProt P0A9A6); assay: two-hybrid
[3] = target: FtsZ^316-370 (bacterial two-hybrid fusion) (E. coli) (UniProt P0A9A6); assay: two-hybrid

Substance | binding [1] | binding [2] | binding [3]
ZapC (untagged) (from UniProt P75862 1-180) | no binding |  | 
ZapC (bacterial two-hybrid fusion) (from UniProt P75862 1-180) |  | binds | no binding
